# Reference: the supplement of paper PMC8728848
# This is one part of the list.
# B1: Pwp1 (Candida glabrata) (protein)
# chain: MGSSHHHHHHSSGLVPRGSHMASANPISITNVCQFPDNWARTAGFQATTVRLGLTIASNTYKELLNYPGLFNFATQKATVTQPNFSISGFPFFTGLYGLTVWPINLLVELQGYFVPPESGNYTFTLQGSDDAAILFFANPSTFACGSQNDWPQPREADITVTDTLVPSRTLYLVKGVAYPIRIAYYNGSGDGKLNVSFKDPSGTTHTDWKGYVWQYSNTCSTCTYT
# Legend:
# Experiment in all cases: glycan array binding signal (z-score within array); higher = stronger binding
# Settings in all cases: glycan notation: IUPAC condensed, linker removed
# [1] = target: Gal(b1-3)GlcNAc(b1-6)[Gal(b1-3)]GalNAc
# Summary of the method: (§1)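 The binding signal is a Z-score computed within each array and averaged over linkers. Arrays of the same protein sequence at different concentrations or buffers were also averaged together. Data originate from 3228 arrays in the Consortium for Functional Glycomics database, kept only where the protein sequence was available.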
# Gal(b1-3)GlcNAc6S = target: Gal(b1-3)GlcNAc6S
# Summary of the method: as §1
# [2] = target: Gal(b1-3)[Fuc(a1-4)]GlcNAc
# Summary of the method: as §1
# [3] = target: Gal(b1-3)[Fuc(a1-4)]GlcNAc(b1-2)Man
# Summary of the method: as §1
# [4] = target: Gal(b1-3)[Fuc(a1-4)]GlcNAc(b1-2)Man(a1-3)[Gal(b1-3)[Fuc(a1-4)]GlcNAc(b1-2)Man(a1-6)]Man(b1-4)GlcNAc(b1-4)[Fuc(a1-6)]GlcNAc
# Summary of the method: as §1
# [5] = target: Gal(b1-3)[Fuc(a1-4)]GlcNAc(b1-3)Gal(b1-3)[Fuc(a1-4)]GlcNAc
# Summary of the method: as §1
# [6] = target: Gal(b1-3)[Fuc(a1-4)]GlcNAc(b1-3)Gal(b1-4)[Fuc(a1-3)]GlcNAc
# Summary of the method: as §1
# [7] = target: Gal(b1-3)[Fuc(a1-4)]GlcNAc(b1-6)GalNAc
# Summary of the method: as §1
# [8] = target: Gal(b1-3)[GlcNAc(b1-6)]GalNAc
# Summary of the method: as §1
# [9] = target: Gal(b1-3)[Neu5Ac(a2-6)]GalNAc
# Summary of the method: as §1
# [10] = target: Gal(b1-3)[Neu5Ac(a2-6)]GlcNAc(b1-4)Gal(b1-4)Glc
# Summary of the method: as §1
# [11] = target: Gal(b1-3)[Neu5Ac(b2-6)]GalNAc
# Summary of the method: as §1
# Gal(b1-4)Gal = target: Gal(b1-4)Gal
# Summary of the method: as §1
# [12] = target: Gal(b1-4)GalNAc(a1-3)[Fuc(a1-2)]Gal(b1-4)GlcNAc
# Summary of the method: as §1
# [13] = target: Gal(b1-4)GalNAc(b1-3)[Fuc(a1-2)]Gal(b1-4)GlcNAc
# Summary of the method: as §1
# Gal(b1-4)Glc = target: Gal(b1-4)Glc
# Summary of the method: as §1
# Gal(b1-4)Glc6S = target: Gal(b1-4)Glc6S
# Summary of the method: as §1
# Gal(b1-4)GlcNAc = target: Gal(b1-4)GlcNAc
# Summary of the method: as §1
# [14] = target: Gal(b1-4)GlcNAc(a1-6)Gal(b1-4)GlcNAc
# Summary of the method: as §1
# Gal(b1-4)GlcNAc(b1-2)Man = target: Gal(b1-4)GlcNAc(b1-2)Man
# Summary of the method: as §1
# [15] = target: Gal(b1-4)GlcNAc(b1-2)Man(a1-3)Man(b1-4)GlcNAc(b1-4)GlcNAc
# Summary of the method: as §1
# [16] = target: Gal(b1-4)GlcNAc(b1-2)Man(a1-3)[Gal(b1-4)GlcNAc(b1-2)Man(a1-6)]Man(b1-4)GlcNAc(b1-4)GlcNAc
# Summary of the method: as §1
# [17] = target: Gal(b1-4)GlcNAc(b1-2)Man(a1-3)[Gal(b1-4)GlcNAc(b1-2)Man(a1-6)]Man(b1-4)GlcNAc(b1-4)[Fuc(a1-6)]GlcNAc
# Summary of the method: as §1
# [18] = target: Gal(b1-4)GlcNAc(b1-2)Man(a1-3)[Gal(b1-4)GlcNAc(b1-2)Man(a1-6)][Gal(b1-4)GlcNAc(b1-4)]Man(b1-4)GlcNAc(b1-4)[Fuc(a1-6)]GlcNAc
# Summary of the method: as §1
# [19] = target: Gal(b1-4)GlcNAc(b1-2)Man(a1-3)[Gal(b1-4)GlcNAc(b1-2)Man(a1-6)][GlcNAc(b1-4)]Man(b1-4)GlcNAc(b1-4)[Fuc(a1-6)]GlcNAc
# Summary of the method: as §1
# [20] = target: Gal(b1-4)GlcNAc(b1-2)Man(a1-3)[GlcNAc(b1-2)Man(a1-6)]Man(b1-4)GlcNAc(b1-4)GlcNAc
# Summary of the method: as §1
# [21] = target: Gal(b1-4)GlcNAc(b1-2)Man(a1-3)[GlcNAc(b1-4)][Gal(b1-4)GlcNAc(b1-2)Man(a1-6)]Man(b1-4)GlcNAc(b1-4)GlcNAc
# Summary of the method: as §1
# [22] = target: Gal(b1-4)GlcNAc(b1-2)Man(a1-3)[Man(a1-6)]Man(b1-4)GlcNAc(b1-4)GlcNAc
# Summary of the method: as §1
# [23] = target: Gal(b1-4)GlcNAc(b1-2)Man(a1-6)Man(b1-4)GlcNAc(b1-4)GlcNAc
# Summary of the method: as §1
# [24] = target: Gal(b1-4)GlcNAc(b1-2)Man(a1-6)[GlcNAc(b1-2)Man(a1-3)]Man(b1-4)GlcNAc(b1-4)GlcNAc
# Summary of the method: as §1
# [25] = target: Gal(b1-4)GlcNAc(b1-2)Man(a1-6)[Man(a1-3)]Man(b1-4)GlcNAc(b1-4)GlcNAc
# Summary of the method: as §1
# [26] = target: Gal(b1-4)GlcNAc(b1-2)[Gal(b1-4)GlcNAc(b1-4)]Man(a1-3)[Gal(b1-4)GlcNAc(b1-2)Man(a1-6)]Man(b1-4)GlcNAc(b1-4)GlcNAc
# Summary of the method: as §1
# [27] = target: Gal(b1-4)GlcNAc(b1-2)[Gal(b1-4)GlcNAc(b1-4)]Man(a1-3)[Gal(b1-4)GlcNAc(b1-2)[Gal(b1-4)GlcNAc(b1-6)]Man(a1-6)]Man(b1-4)GlcNAc(b1-4)GlcNAc
# Summary of the method: as §1
# [28] = target: Gal(b1-4)GlcNAc(b1-2)[Gal(b1-4)GlcNAc(b1-4)]Man(a1-3)[GlcNAc(b1-4)][Gal(b1-4)GlcNAc(b1-2)Man(a1-6)]Man(b1-4)GlcNAc(b1-4)GlcNAc
# Summary of the method: as §1
# [29] = target: Gal(b1-4)GlcNAc(b1-2)[Gal(b1-4)GlcNAc(b1-4)]Man(a1-3)[GlcNAc(b1-4)][Gal(b1-4)GlcNAc(b1-2)[Gal(b1-4)GlcNAc(b1-6)]Man(a1-6)]Man(b1-4)GlcNAc(b1-4)GlcNAc
# Summary of the method: as §1
# [30] = target: Gal(b1-4)GlcNAc(b1-2)[Gal(b1-4)GlcNAc(b1-6)]Man(a1-6)[Gal(b1-4)GlcNAc(b1-2)Man(a1-3)]Man(b1-4)GlcNAc(b1-4)GlcNAc
# Summary of the method: as §1
# [31] = target: Gal(b1-4)GlcNAc(b1-2)[Gal(b1-4)GlcNAc(b1-6)]Man(a1-6)[Gal(b1-4)GlcNAc(b1-2)Man(a1-3)]Man(b1-4)GlcNAc(b1-4)[Fuc(a1-6)]GlcNAc
# Summary of the method: as §1
# [32] = target: Gal(b1-4)GlcNAc(b1-2)[Gal(b1-4)GlcNAc(b1-6)]Man(a1-6)[GlcNAc(b1-4)][Gal(b1-4)GlcNAc(b1-2)Man(a1-3)]Man(b1-4)GlcNAc(b1-4)GlcNAc
# Summary of the method: as §1
# [33] = target: Gal(b1-4)GlcNAc(b1-2)[Gal(b1-4)GlcNAc(b1-6)]Man(a1-6)[GlcNAc(b1-4)][Gal(b1-4)GlcNAc(b1-2)[Gal(b1-4)GlcNAc(b1-4)]Man(a1-3)]Man(b1-4)GlcNAc(b1-4)[Fuc(a1-6)]GlcNAc
# Summary of the method: as §1
# [34] = target: Gal(b1-4)GlcNAc(b1-3)Gal(b1-3)GalNAc
# Summary of the method: as §1
# [35] = target: Gal(b1-4)GlcNAc(b1-3)Gal(b1-3)GlcNAc
# Summary of the method: as §1
# [36] = target: Gal(b1-4)GlcNAc(b1-3)Gal(b1-4)Glc
# Summary of the method: as §1
# [37] = target: Gal(b1-4)GlcNAc(b1-3)Gal(b1-4)GlcNAc
# Summary of the method: as §1
# [38] = target: Gal(b1-4)GlcNAc(b1-3)Gal(b1-4)GlcNAc(b1-2)Man(a1-3)[Gal(b1-4)GlcNAc(b1-3)Gal(b1-4)GlcNAc(b1-2)Man(a1-6)]Man(b1-4)GlcNAc(b1-4)GlcNAc
# Summary of the method: as §1
# [39] = target: Gal(b1-4)GlcNAc(b1-3)Gal(b1-4)GlcNAc(b1-2)Man(a1-3)[Gal(b1-4)GlcNAc(b1-3)Gal(b1-4)GlcNAc(b1-2)Man(a1-6)]Man(b1-4)GlcNAc(b1-4)[Fuc(a1-6)]GlcNAc
# Summary of the method: as §1
binder,measurement,setting,value
B1,glycan array binding signal (z-score),[1],0.884
same,glycan array binding signal (z-score),Gal(b1-3)GlcNAc6S,0.568
same,glycan array binding signal (z-score),[2],0.076
same,glycan array binding signal (z-score),[3],0.097
same,glycan array binding signal (z-score),[4],0.284
same,glycan array binding signal (z-score),[5],1.23
same,glycan array binding signal (z-score),[6],0.748
same,glycan array binding signal (z-score),[7],-0.308
same,glycan array binding signal (z-score),[8],-0.264
same,glycan array binding signal (z-score),[9],0.849
same,glycan array binding signal (z-score),[10],0.479
same,glycan array binding signal (z-score),[11],1.04
same,glycan array binding signal (z-score),Gal(b1-4)Gal,0.124
same,glycan array binding signal (z-score),[12],1.45
same,glycan array binding signal (z-score),[13],0.985
same,glycan array binding signal (z-score),Gal(b1-4)Glc,0.891
same,glycan array binding signal (z-score),Gal(b1-4)Glc6S,-0.615
same,glycan array binding signal (z-score),Gal(b1-4)GlcNAc,0.505
same,glycan array binding signal (z-score),[14],0.197
same,glycan array binding signal (z-score),Gal(b1-4)GlcNAc(b1-2)Man,-0.208
same,glycan array binding signal (z-score),[15],1.04
same,glycan array binding signal (z-score),[16],-0.053
same,glycan array binding signal (z-score),[17],-1.58
same,glycan array binding signal (z-score),[18],0.373
same,glycan array binding signal (z-score),[19],0.876
same,glycan array binding signal (z-score),[20],1.15
same,glycan array binding signal (z-score),[21],0.727
same,glycan array binding signal (z-score),[22],0.768
same,glycan array binding signal (z-score),[23],0.264
same,glycan array binding signal (z-score),[24],0.335
same,glycan array binding signal (z-score),[25],0.109
same,glycan array binding signal (z-score),[26],-0.345
same,glycan array binding signal (z-score),[27],0.571
same,glycan array binding signal (z-score),[28],0.295
same,glycan array binding signal (z-score),[29],-1.58
same,glycan array binding signal (z-score),[30],0.454
same,glycan array binding signal (z-score),[31],0.645
same,glycan array binding signal (z-score),[32],0.195
same,glycan array binding signal (z-score),[33],0.531
same,glycan array binding signal (z-score),[34],-0.625
same,glycan array binding signal (z-score),[35],0.776
same,glycan array binding signal (z-score),[36],0.661
same,glycan array binding signal (z-score),[37],0.361
same,glycan array binding signal (z-score),[38],0.746
same,glycan array binding signal (z-score),[39],-1.03

# No new results follow: an excerpt of the list.
binder,measurement,setting,value
B1,glycan array binding signal (z-score),[11],1.04
same,glycan array binding signal (z-score),Gal(b1-4)Gal,0.124
